The target in experiment [1] is T1, OsSHR2 fused with the DNA binding domain (pGBKT7) (rice (Oryza sativa L. japonica cultivar Nipponbare)) (UniProt Q75I13).
T1 sequence: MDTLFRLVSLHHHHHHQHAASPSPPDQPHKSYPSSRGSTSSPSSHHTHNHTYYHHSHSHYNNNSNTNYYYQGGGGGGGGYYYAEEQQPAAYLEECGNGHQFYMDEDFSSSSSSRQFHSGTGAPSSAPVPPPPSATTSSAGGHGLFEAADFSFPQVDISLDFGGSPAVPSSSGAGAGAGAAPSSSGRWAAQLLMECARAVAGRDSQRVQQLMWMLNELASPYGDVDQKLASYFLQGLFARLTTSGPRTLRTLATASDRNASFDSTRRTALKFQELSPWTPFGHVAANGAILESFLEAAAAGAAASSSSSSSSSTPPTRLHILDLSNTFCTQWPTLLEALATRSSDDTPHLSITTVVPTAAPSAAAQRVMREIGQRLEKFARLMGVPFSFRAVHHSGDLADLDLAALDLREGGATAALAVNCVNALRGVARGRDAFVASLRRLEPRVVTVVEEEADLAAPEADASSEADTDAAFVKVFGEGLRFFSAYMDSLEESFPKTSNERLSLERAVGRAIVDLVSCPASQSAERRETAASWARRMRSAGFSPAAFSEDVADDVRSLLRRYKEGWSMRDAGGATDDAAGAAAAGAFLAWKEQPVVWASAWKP
The experiment in a line: two-hybrid.

The target in experiment [2] is T2, OsSHR1 fused with the DNA binding domain (pGBKT7) (rice (Oryza sativa L. japonica cultivar Nipponbare)) (UniProt Q8H2X8).
T2 sequence: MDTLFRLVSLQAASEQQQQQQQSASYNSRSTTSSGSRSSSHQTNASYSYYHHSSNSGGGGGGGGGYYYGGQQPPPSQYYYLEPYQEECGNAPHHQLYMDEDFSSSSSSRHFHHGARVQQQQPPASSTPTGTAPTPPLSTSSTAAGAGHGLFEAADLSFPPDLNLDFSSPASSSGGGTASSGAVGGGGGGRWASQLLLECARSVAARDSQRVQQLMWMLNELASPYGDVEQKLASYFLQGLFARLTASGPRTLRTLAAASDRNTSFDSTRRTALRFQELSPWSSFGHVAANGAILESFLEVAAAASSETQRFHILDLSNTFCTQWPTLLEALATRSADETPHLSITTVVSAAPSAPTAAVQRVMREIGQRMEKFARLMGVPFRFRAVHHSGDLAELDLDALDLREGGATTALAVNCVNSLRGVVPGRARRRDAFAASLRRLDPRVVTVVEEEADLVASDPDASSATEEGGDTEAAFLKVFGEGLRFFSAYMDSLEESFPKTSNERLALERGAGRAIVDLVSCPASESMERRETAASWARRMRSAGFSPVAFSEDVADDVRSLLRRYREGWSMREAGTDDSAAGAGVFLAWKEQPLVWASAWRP
The experiment in a line: two-hybrid.

The target of experiment [3] is GST: OsIDD12 fusion protein (rice (Oryza sativa L. japonica cultivar Nipponbare)) (UniProt B7EZP0). The experiment in a line: pull-down.
Experiment [4] addresses GST: OsIDD13 fusion protein (rice (Oryza sativa L. japonica cultivar Nipponbare)). Briefly: pull-down.

These are yes or no findings as the source states them, for the method shown. Binding can be weak; no strength is given. Where a sequence is shown, tags or fusion partners need not be part of it.

As for “OsIDD12 fused with the activation domain (pGADT7) (from UniProt B7EZP0)”, the binding result in experiment [1] and in experiment [2] was “binds” throughout.

In the case of “OsIDD13 fused with the activation domain (pGADT7)”, the binding entry in experiment [1] and in experiment [2] was “binds” each time.

B1: MBP:OsSHR1 fusion protein (protein, UniProt Q8H2X8 1-602)
chain: T2 sequence
Turning to B1, the binding result in experiment [3] and in experiment [4] was “binds” each time.

The record behind these values is publication doi:10.1101/2022.09.22.509058.
